Data as given in PubChem BioAssay AID652243 (Drosophila RNAi Screening Center, 2013)

- Aim: 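Fly genes required for human androgen receptor driven transcription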 (primary screen)
- System: Drosophila S2R+ cells
- Reagent: long dsRNA against Drosophila genes
- Duration: 72 h (48 h, then 24 h hormone)
- Treatment: synthetic androgen R1881 at 10 nM for 24 h
- Measurement: 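Per-well raw luminescence of the androgen-driven firefly reporter and of the Renilla control, two replicates each, without normalisation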
- Scale: firefly reporter light: higher = more light from androgen-responsive reporter; Renilla control light: higher = more constitutive control signal (cell number, transfection)
- Hit rule: 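Across duplicate plates, a knock-down whose log firefly/Renilla ratio shifted a set fold down or up from the GFP/LacZ control mean was a hit; the downward cut appears as both 1.5 and 3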
- Calls: active = hit: reporter lowered or raised; inactive = no hit
The screen tested about 24,000 reagents; shown is an unselected part of those with a known target gene and a result. In the full data, 246 (1%) are marked active. 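Plates not normalised; calls are printed but the firefly/Renilla ratio behind them is not deposited; fold cut for lowering reported inconsistently.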 The raw values are shown without normalisation. The numbers tell different reagents against one gene apart. Not stated in the record: the amount of reagent.

Silencing of Cyp4d2 resulted in: firefly reporter light, replicate 1 = 74184; firefly reporter light, replicate 2 = 85573; Renilla control light, replicate 1 = 6.79e5; Renilla control light, replicate 2 = 5.01e5; inactive. With knock-down of CG43155 #1, the screen gave firefly reporter light, replicate 1 = 3.00e5; firefly reporter light, replicate 2 = 3.21e5; Renilla control light, replicate 1 = 3.47e6; Renilla control light, replicate 2 = 2.76e6; inactive. For CG43155 #2 the deposit lists firefly reporter light, replicate 1 = 5.06e5; firefly reporter light, replicate 2 = 4.81e5; Renilla control light, replicate 1 = 4.00e6; Renilla control light, replicate 2 = 3.37e6; inactive. Silencing of CG4294 gave: firefly reporter light, replicate 1 = 7.29e5; firefly reporter light, replicate 2 = 5.69e5; Renilla control light, replicate 1 = 8.77e5; Renilla control light, replicate 2 = 7.76e5; inactive. CG31178 scored firefly reporter light, replicate 1 = 2.83e5; firefly reporter light, replicate 2 = 2.94e5; Renilla control light, replicate 1 = 3.45e6; Renilla control light, replicate 2 = 3.33e6; inactive.

Reformatted: entries from further up
| Gene | reagent no. | firefly reporter light, replicate 1 | firefly reporter light, replicate 2 | Renilla control light, replicate 1 | Renilla control light, replicate 2 | activity call |
| --- | --- | --- | --- | --- | --- | --- |
| Cyp4d2 | 1 | 74184 | 85573 | 6.79e5 | 5.01e5 | inactive |
| CG43155 | 1 | 3.00e5 | 3.21e5 | 3.47e6 | 2.76e6 | inactive |

More records follow.
With knock-down of CG16986, the record shows firefly reporter light, replicate 1 = 1.69e5; firefly reporter light, replicate 2 = 1.11e5; Renilla control light, replicate 1 = 1.66e6; Renilla control light, replicate 2 = 1.52e6; inactive. For Liprin-alpha #1, the entry reads firefly reporter light, replicate 1 = 1.23e6; firefly reporter light, replicate 2 = 1.11e6; Renilla control light, replicate 1 = 2.70e6; Renilla control light, replicate 2 = 2.23e6; inactive. Depletion of Liprin-alpha #2 came out at: firefly reporter light, replicate 1 = 6.49e5; firefly reporter light, replicate 2 = 5.91e5; Renilla control light, replicate 1 = 1.13e6; Renilla control light, replicate 2 = 8.83e5; inactive. ReepB #1 scored firefly reporter light, replicate 1 = 6.83e5; firefly reporter light, replicate 2 = 9.28e5; Renilla control light, replicate 1 = 2.07e6; Renilla control light, replicate 2 = 2.10e6; inactive. Against ReepB #2, the entry reads firefly reporter light, replicate 1 = 2.35e5; firefly reporter light, replicate 2 = 2.52e5; Renilla control light, replicate 1 = 4.28e5; Renilla control light, replicate 2 = 4.76e5; inactive. CG15879 #1 scored firefly reporter light, replicate 1 = 32839; firefly reporter light, replicate 2 = 42094; Renilla control light, replicate 1 = 5.78e5; Renilla control light, replicate 2 = 5.90e5; inactive.

Knock-down of CG15879 #2 gave: firefly reporter light, replicate 1 = 4.49e5; firefly reporter light, replicate 2 = 3.95e5; Renilla control light, replicate 1 = 7.98e5; Renilla control light, replicate 2 = 6.54e5; inactive.
